Experimental data: patent US10143727B2, “Method using an Y1 receptor activator for treating an anticancer agent-induced nephrotoxic injury” (KYUNGPOOK NATIONAL UNIVERSITY INDUSTRY-ACADEMIC COOPERATION …, priority 2016, dated 2018)

Test system: Neuropeptide Y (NPY) and Y receptors in the kidney
Assay: Quantitative real-time PCR of NPY and Y receptors in the kidney
Format: in vivo, C57BL/6 mice

With `N.N.[Cl][Pt][Cl]` [cisplatin, Cisplatin] the “Expression level of Y1 receptor in the kidney” value (after cisplatin 15 mg per kg treatment) was “significantly decreased” and the “mRNA levels of Neuropeptide Y (NPY) in renal cells” value (cisplatin 15 mg per kg vs PBS-treated controls) was “significantly decreased”.
